Assay results from patent US20180243325A1, “METHOD FOR INHIBITING ABSORPTION OF AND/OR PROMOTING EXCRETION OF LIPIDS USING D-PSICOSE” (CJ CHEILJEDANG CORPORATION, priority 2015, published 2018).

Tested on: high-fat diet-induced obese mice
Experiment: Body weight, organ weight and adipose tissue weight of high-fat diet-induced obese mice
Format: in vivo, C57BL/6J mice
Conditions: HFD+5% w/w in diet, pair feeding based on PSI group
Protocol: First, 4-week-old male C57BL/6J mice (60 total) were purchased from Jackson Laboratory. The animals were acclimated to the vivarium in a thermo-hygrostat (20-23° C., 45-65%) under a 12 h light/dark cycle and fed a pelletized commercial non-purified diet for 1 week after arrival. The mice were then randomly divided into 6 groups (n=10) and fed the respective experimental diets for 16 weeks: normal diet group (ND, American Institute of Nutrition (AIN)-76 semi-synthetic diet), high-fat diet group (HFD, 20% fat+1% cholesterol based on AIN-76 diet), PSI group (HFD+5% D-psicose, w/w, Sigma Chemical Company), ERY group (HFD+5% erythritol, w/w, Sigma Chemical Company), GLU group (HFD+5% D-glucose, w/w, Sigma Chemical Company), and FRU group (HFD+5% D-fructose, w/w, Sigma Chemical Company). All high-fat diet-fed groups were allowed to ingest the same calories by pair feeding based on the PSI group. The mice had ad libitum access to distilled water during the experimental period. Their feed intakes and body weights were measured daily and biweekly, respectively. The organ weights and the adipose tissue weights of the mice were measured after sacrificing the animals.

| Structure (SMILES) | Energy Intake | Food Intake |
| --- | --- | --- |
| OC[C@@H](O)[C@@H](O)CO [ERY, erythritol] | 13.88 kcal/day | 3.17 g/day |
| O=C(CO)[C@@H](O)[C@H](O)[C@H](O)CO [FRU, D-fructose] | 13.88 kcal/day | 3.03 g/day |
| O=C[C@H](O)[C@@H](O)[C@H](O)[C@H](O)CO [GLU, D-glucose] | 13.88 kcal/day | 3.03 g/day |
| O=C(CO)[C@H](O)[C@H](O)[C@H](O)CO [PSI, D-psicose] | 13.88 kcal/day | 3.17 g/day |
